Laboratory results taken from US20240052042A1 (Novartis, published 2024).
Results are given in words; binding and its absence hold for the method and conditions named. Some binding calls cover weakened binding; strength is not graded here.

Sequences of proteins named here, by UniProt entry; tags and fusion partners are left off. Residues count along the entry.
UniProt P02769, residues 25-607: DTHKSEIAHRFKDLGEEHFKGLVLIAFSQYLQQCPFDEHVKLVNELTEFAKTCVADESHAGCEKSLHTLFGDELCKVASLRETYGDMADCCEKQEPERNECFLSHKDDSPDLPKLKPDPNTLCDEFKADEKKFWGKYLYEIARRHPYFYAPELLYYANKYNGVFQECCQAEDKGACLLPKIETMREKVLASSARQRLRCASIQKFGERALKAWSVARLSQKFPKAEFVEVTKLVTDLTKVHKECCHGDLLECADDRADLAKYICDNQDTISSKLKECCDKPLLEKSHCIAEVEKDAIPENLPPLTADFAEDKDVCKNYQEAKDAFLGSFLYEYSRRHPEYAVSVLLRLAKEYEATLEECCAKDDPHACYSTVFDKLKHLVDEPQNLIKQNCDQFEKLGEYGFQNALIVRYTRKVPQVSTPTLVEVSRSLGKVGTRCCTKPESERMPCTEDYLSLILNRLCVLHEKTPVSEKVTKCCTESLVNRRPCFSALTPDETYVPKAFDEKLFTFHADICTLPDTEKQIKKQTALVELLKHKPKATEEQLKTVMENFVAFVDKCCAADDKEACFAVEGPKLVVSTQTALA

T1: rNPR1-ANP complex (rat)
T1 sequence: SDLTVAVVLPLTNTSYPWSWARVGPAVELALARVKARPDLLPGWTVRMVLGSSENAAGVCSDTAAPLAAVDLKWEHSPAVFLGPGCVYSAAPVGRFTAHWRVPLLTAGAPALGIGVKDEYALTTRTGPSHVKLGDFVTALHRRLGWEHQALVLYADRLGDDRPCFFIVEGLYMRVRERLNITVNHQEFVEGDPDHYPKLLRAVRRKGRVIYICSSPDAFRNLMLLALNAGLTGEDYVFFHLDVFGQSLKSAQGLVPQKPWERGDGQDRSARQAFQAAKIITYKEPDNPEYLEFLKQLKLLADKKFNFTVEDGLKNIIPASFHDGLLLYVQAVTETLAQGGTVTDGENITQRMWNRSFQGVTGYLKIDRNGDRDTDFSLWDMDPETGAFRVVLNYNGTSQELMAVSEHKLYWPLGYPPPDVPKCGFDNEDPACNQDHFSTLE
T1 sequence (peptide): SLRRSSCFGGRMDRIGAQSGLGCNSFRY

T2: human NPR3 in the presence of ANP (human, UniProt P17342 27-481; P01160 124-151, limits assumed)
T2 construct: also called hNPR3 + 100 nM ANP
T2 sequence (looked up): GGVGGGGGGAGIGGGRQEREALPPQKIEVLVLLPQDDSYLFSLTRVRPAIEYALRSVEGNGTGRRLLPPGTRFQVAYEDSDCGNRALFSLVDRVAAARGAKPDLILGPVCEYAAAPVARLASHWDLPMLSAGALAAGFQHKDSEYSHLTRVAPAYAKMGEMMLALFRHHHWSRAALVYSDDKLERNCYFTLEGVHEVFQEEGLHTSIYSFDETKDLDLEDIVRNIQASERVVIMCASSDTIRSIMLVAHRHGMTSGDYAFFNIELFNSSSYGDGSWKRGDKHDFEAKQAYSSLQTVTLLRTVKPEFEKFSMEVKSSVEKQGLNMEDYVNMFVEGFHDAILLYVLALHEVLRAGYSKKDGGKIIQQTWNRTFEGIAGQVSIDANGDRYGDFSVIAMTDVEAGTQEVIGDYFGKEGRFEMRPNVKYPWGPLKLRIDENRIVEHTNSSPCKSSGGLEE
T2 sequence (peptide, looked up): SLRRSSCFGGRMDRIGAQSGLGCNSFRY

T3: human NPR3 (counter target) (human, UniProt P17342 27-481, limits assumed)
T3 construct: Pannings used hNPR3-hFc; also called hNPR3; hNPR3-hFc
T3 sequence (looked up): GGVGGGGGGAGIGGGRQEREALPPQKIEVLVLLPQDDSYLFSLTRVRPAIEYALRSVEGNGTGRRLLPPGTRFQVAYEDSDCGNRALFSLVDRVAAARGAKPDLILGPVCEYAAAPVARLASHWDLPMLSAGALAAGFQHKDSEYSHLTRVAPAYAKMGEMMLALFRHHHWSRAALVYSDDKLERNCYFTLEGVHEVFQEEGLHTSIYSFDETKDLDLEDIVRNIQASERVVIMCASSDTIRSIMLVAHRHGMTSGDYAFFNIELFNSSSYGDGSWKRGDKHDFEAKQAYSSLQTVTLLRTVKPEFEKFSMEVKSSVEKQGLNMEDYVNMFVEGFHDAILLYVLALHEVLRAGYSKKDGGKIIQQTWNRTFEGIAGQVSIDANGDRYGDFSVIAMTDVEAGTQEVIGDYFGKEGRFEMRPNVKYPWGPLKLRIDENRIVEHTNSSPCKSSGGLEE


Legend:
rNPR1-ANP complex (rat) [1] = target: T1, rNPR1-ANP complex (rat); experiment: ELISA, IgG titrated on coated antigen with ANP (250 fold molar excess), fluorescence
BSA (bovine) = BSA (bovine) (UniProt P02769); experiment: ELISA, IgG titrated on coated antigen, fluorescence [Cont.]
[2] = target: T2, human NPR3 in the presence of ANP; experiment: ELISA, IgG titrated on coated antigen with ANP (250 fold molar excess), fluorescence [Cont.]
rNPR1-ANP complex (rat) [3] = target: T1, rNPR1-ANP complex (rat); experiment: as above
[4] = target: T3, human NPR3 (counter target); experiment: FabCys affinity determination
[5] = target: T3, human NPR3 (counter target); experiment: ELISA, IgG titrated on coated antigen, fluorescence [Cont.]

Row | Binder | binding (BSA (bovine)) | binding (rNPR1-ANP complex (rat) [3]) | also measured
1 | XX01 (IgG format) (antibody, V domains shown) VH: EVQLLESGGGLVQPGGSLRLSCAASGFTFNTHYIHWVRQAPGKGLEWVSSISSSGQSTYYADSVKGRFTISRDNSKNTLYLQMNSLRAEDTAVYYCARERGYVYYHMFDPWGQGTLVTVSS VL: DIVLTQSPATLSLSPGERATLSCRASQSITRNYLAWYQQKPGQAPRLLIYGASSRATGIPARFSGSGSGTDFTLTISSLEPEDFAVYYCQQHSMYPRTFGQGTKVEIK |  |  | binding (rNPR1-ANP complex (rat) [1]): binds
2 | WW01 (FabCys format) (Fab, V domains shown, Monovalent disulfide-bridged FabCys) VH: QVQLLESGGGLVQPGGSLRLSCAASGFTFNTHYIHWVRQAPGKGLEWVSSISGSGSNTYYADSVKGRFTISRDNSKNTLYLQMNSLRAEDTAVYYCARERGYVYYHMFDPWGQGTLVTVSS VL: DIVLTQSPATLSLSPGERATLSCRASQSITRNYLAWYQQKPGQAPRLLIYGASSRATGIPARFSGSGSGTDFTLTISSLEPEDFAVYYCQQHSMYPRTFGQGTKVEIK |  |  | binding [4]: binds
3 | YY05 (IgG format) (antibody, V domains shown, also called YY05_LALA) VH: EVQLVQSGAEVKKPGESLKISCKGSGYSFTSYWISWVRQMPGKGLEWMGIIYPGTSYTRYSPSFQGQVTISADKSISTAYLQWSSLKASDTAMYYCARGAVAGQLGFDHWGQGTLVTVSS VL: QSVLTQPPSVSGAPGQRVTISCTGSSSNIGAGYDVHWYQQLPGTAPKLLIYGNSNRPSGVPDRFSGSKSGTSASLAITGLQAEDEADYYCQSYYTSSHGPVFGGGTKLTVLG | no binding (tested: 1000 nM) |  | 
4 | XX06 (IgG format) (antibody, V domains shown) VH: QVQLLESGGGLVQPGGSLRLSCAASGFTFSSYWMNWVRQAPGKGLEWVSAISSDGSYTYYADSVKGRFTISRDNSKNTLYLQMNSLRAEDTAVYYCARDRYSMIYSYGAGAFDYWGQGTLVTVSS VL: DIQMTQSPSSLSASVGDRVTITCRASQGISSYLAWYQQKPGKAPKLLIYTASTLQSGVPSRFSGSGSGTDFTLTISSLQPEDFATYYCQQTWRKPRTFGQGTKVEIK | no binding (tested: 200 nM) | binds | 
5 | XX04 (IgG format) (antibody, V domains shown) VH: QVQLLESGGGLVQPGGSLRLSCAASGFTFSSYWMNWVRQAPGKGLEWVSAISSDGSYTYYADSVKGRFTISRDNSKNTLYLQMNSLRAEDTAVYYCARDRYSMIYSYGAGAFDYWGQGTLVTVSS VL: DIQMTQSPSSLSASVGDRVTITCRASQGISSYLAWYQQKPGKAPKLLIYTASTLQSGVPSRFSGSGSGTDFTLTISSLQPEDFATYYCQQEWVKPRTFGQGTKVEIK |  | binds | binding [2]: binds
6 | XX07 (IgG format) (antibody, V domains shown) VH: QVQLLESGGGLVQPGGSLRLSCAASGFTFSSYWMNWVRQAPGKGLEWVSAISSDGSYTYYADSVKGRFTISRDNSKNTLYLQMNSLRAEDTAVYYCARDRYSMIYSYGAGAFDYWGQGTLVTVSS VL: DIQMTQSPSSLSASVGDRVTITCRASQGISSYLAWYQQKPGKAPKLLIYTASTLQSGVPSRFSGSGSGTDFTLTISSLQPEDFATYYCQQIWTVPRTFGQGTKVEIK | no binding (tested: 200 nM) | binds | 
7 | YY04 (IgG format) (antibody, V domains shown, also called YY04_LALA) VH: EVQLVESGGGLVKPGGSLRLSCAASGFTFSNYWISWVRQAPGKGLEWVGRIKSKTYGGTTDYAEPVKGRFTISRDDSKNTLYLQMNSLKTEDTAVYYCAREKYSIRARGHGDYGFDVWGQGTLVTVSS VL: DIQMTQSPSSLSASVGDRVTITCRASQGISNYLAWYQQKPGKVPKLLIYAASTLQSGVPSRFSGSGSGTDFTLTISSLQPEDVATYYCQQGYHAPFTFGQGTKVEIKR | no binding (tested: 1000 nM) | binds | 
8 | WW06 (FabCys format) (Fab, V domains shown) VH: QVQLVQSGAEVKKPGESLKISCKGSGYSFTSYWIAWVRQMPGKGLEWMGRIDPDNSYTRYSPSFQGQVTISADKSISTAYLQWSSLKASDTAMYYCARWLSPGYALGEQPAGMDHWGQGTLVTVSS VL: DIVLTQPPSVSGAPGQRVTISCTGSSSNIGAGYAVHWYQQLPGTAPKLLIYSNNKRPSGVPDRFSGSKSGTSASLAITGLQAEDEADYYCQSYDLQKSSRVFGGGTKLTVL |  |  | binding [4]: binds

Further lines, with some results ahead:

Row | binding (BSA (bovine)) | binding (rNPR1-ANP complex (rat) [3]) | Binder | also measured
9 | no binding (tested: 200 nM) | binds | XX08 (antibody, V domains shown, x axis reads IgG conc; [nM]; also called XX08 (IgG format)) VH: EVQLLESGGGLVQPGGSLRLSCAASGFTFNTHYIHWVRQAPGKGLEWVSSIGGQGGMTLYADSVKGRFTISRDNSKNTLYLQMNSLRAEDTAVYYCARERGYVYYHMFDPWGQGTLVTVSS VL: DIVLTQSPATLSLSPGERATLSCRASQSITRNYLAWYQQKPGQAPRLLIYGASSRATGIPARFSGSGSGTDFTLTISSLEPEDFAVYYCQQHSMYPRTFGQGTKVEIKR | binding [2]: binds
10 | no binding (tested: 1000 nM) |  | YY07 (IgG format) (antibody, V domains shown, also called YY07_LALA) VH: EVQLVQSGAEVKKPGESLKISCKGSGYSFTSYWISWVRQMPGKGLEWMGIIYPGTSYTRYSPSFQGQVTISADKSISTAYLQWSSLKASDTAMYYCARGSLPGLLGFDHWGQGTLVTVSS VL: QSVLTQPPSVSGAPGQRVTISCTGSSSNIGAGYDVHWYQQLPGTAPKLLIYGNSNRPNGVPDRFSGSKSGTSASLAITGLQAEDEADYYCQSYDSPTSSSVFGGGTKLTVLG | 
11 | no binding (tested: 200 nM) | binds | XX03 (IgG format) (antibody, V domains shown) VH: EVQLLESGGGLVQPGGSLRLSCAASGFTFSSYWMNWVRQAPGKGLEWVSVIESKGNYIFYADSVKGRFTISRDNSKNTLYLQMNSLRAEDTAVYYCARDRYSMIYSYGAGAFDYWGQGTLVTVSS VL: DIQMTQSPSSLSASVGDRVTITCRASQGISSYLAWYQQKPGKAPKLLIYTASTLQSGVPSRFSGSGSGTDFTLTISSLQPEDFATYYCMQSYEKPRTFGQGTKVEIK | 
12 | no binding (tested: 200 nM) | binds | XX12 (IgG format) (antibody, V domains shown) VH: QVQLLESGGGLVQPGGSLRLSCAASGFTFSSYWMNWVRQAPGKGLEWVSAISSDGSYTYYADSVKGRFTISRDNSKNTLYLQMNSLRAEDTAVYYCARDRYSMIYSYGAGAFDYWGQGTLVTVSS VL: DIQMTQSPSSLSASVGDRVTITCRASQGISSYLAWYQQKPGKAPKLLIYTASTLQSGVPSRFSGSGSGTDFTLTISSLQPEDFATYYCQQIWMAPRTFGQGTKVEIK | binding [5]: binds; binding [2]: binds
13 | no binding (tested: 1000 nM) |  | YY06 (IgG format) (antibody, V domains shown, also called YY06_LALA) VH: EVQLLESGGGLVQPGGSLRLSCAASGFTFSSYAISWVRQAPGKGLEWVSAISGSGGSTYYAESVKGRFTISRDNSKNTLYLQMNSLRAEDTAVYYCARPYLGDRRSYGFDHWGQGTLVTVSS VL: QSALTQPASVSGSPGQSITISCTGTSSDVGSYNLVSWYQQHPGKAPKLMIYEGSKRPSGVSNRFSGSKSGNTASLTISGLQAEDEADYYCSSYGFHIVVVVFGGGTKLTVLG | 
14 | no binding (tested: 1000 nM) | binds | YY02 (IgG format) (antibody, V domains shown, IgG format; also called YY02_LALA) VH: EVQLVESGGGLVKPGGSLRLSCAASGFTFSSYSMNWVRQAPGKGLEWVSSISSSSSYIYYADSVKGRFTISRDNAKNSLYLQMNSLRAEDTAVYYCARSGYRGVYGFDYWGQGTLVTVSS VL: DIQMTQSPSSVSASVGDRVTITCRASQGISSWLAWYQQKPGKAPKLLIYAASSLQSGVPSRFSGSGSGTDFTLTISSLQPEDFATYYCQQYYHSPLTFGQGTKVEIKR | 
15 | no binding (tested: 1000 nM) | binds | YY03 (IgG format) (antibody, V domains shown, IgG format; also called YY03_LALA) VH: EVQLLESGGGLVQPGGSLRLSCAASGFTFSSYAISWVRQAPGKGLEWVSAISGSGGSTYYAESVKGRFTISRDNSKNTLYLQMNSLRAEDTAVYYCARESGYVYYLKFDYWGQGTLVTVSS VL: DIQMTQSPSSLSASVGDRVTITCRASQSISSYLNWYQQKPGKAPKLLIYAASSLQSGVPSRFSGSGSGTDFTLTISSLQPEDFATYYCQQHVRVPITFGQGTKVEIKR | 
